Reference: patent publication US9243281B2, “Neuroprotective chemicals and methods for identifying and using same” (Board of Regents of The University of Texas System, priority 2013, dated 2016)

Sequences of proteins named here, by UniProt entry; tags and fusion partners are left off. A change or cut given only in a name is not applied to a line headed by its entry.
UniProt P43490: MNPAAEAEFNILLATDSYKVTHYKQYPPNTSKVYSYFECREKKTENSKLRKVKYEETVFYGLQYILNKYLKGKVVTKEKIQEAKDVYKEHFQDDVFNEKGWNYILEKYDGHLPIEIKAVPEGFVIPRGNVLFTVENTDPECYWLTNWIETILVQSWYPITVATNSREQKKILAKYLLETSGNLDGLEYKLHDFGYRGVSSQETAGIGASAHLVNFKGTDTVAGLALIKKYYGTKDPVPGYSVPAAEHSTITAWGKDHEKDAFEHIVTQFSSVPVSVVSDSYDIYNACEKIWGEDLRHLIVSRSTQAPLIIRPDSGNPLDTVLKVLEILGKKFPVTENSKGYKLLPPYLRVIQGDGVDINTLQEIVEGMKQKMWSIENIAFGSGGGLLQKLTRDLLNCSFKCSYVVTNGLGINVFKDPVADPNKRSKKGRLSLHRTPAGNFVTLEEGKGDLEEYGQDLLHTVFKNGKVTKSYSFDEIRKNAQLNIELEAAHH

Target: T1, p70 (NAMPT) (Homo sapiens, UniProt P43490)
T1 construct: endogenous in cells; host or cells: H2122 lung cancer cells
Assay: binding competition for photo-crosslinking of P7C3-S326 to p70 in H2122 cells
Details: 0.3 μM P7C3-S326 plus 5 μM competitor, p70 band intensity, P7C3-S326 alone compared with plus competitor, vehicle 1.0
Method: Cultured cells were co-exposed to P7C3-S326 (0.3 uM) and the individual P7C3 variants (5 uM), exposed to UV light, lysed, clicked to a fluorescent dye and run on SDS gels (FIG. 11).
P7C3-S326 was diluted to 0.3 μM in culture medium to treat H2122 cells. After incubation at 37° C. for 2 hours, H2122 cells were irradiated for 15 minutes under 306 nm ultraviolet light in a Stratalinker 2400 (Stratagene). Cells were then harvested by dissolving in 1% SDS lysis buffer 50 mM HEPES, pH 8.0, 2 mM MgCl2, 10 mM KCl, 1% SDS, 50 units/ml of Benzonase (Sigma), supplemented with Sigmafast protease inhibitor (Sigma).
The reaction was incubated at room temperature with constant agitation at 1,000 rpm on a thermomixer (Eppendorf) for 1 hour. Samples were then mixed with SDS sample loading buffer and loaded on an 8% SDS-PAGE gel, separated, and imaged using a Typhoon imager (filter settings: excitation 533 nm, emission 555 nm, and high sensitivity).
H2122 cells were incubated with the P7C3-S326 (0.3 μM) in the absence or presence of P7C3 analogs for 2 hours following by UV crosslinking. […] The samples were run on SDS-PAGE gels scanned using a Typhoon Imager. The p70 band intensity was analyzed and quantified by Image J, and the relative intensity in each assay was normalized to that of the DMSO control.

Binding competition: 0.9
SMILES: CN(C)CCCN1c2ccccc2CCc2ccc(Cl)cc21.Cl [S85, Clomipramine, reference compound]
